Data as given in PubChem BioAssay AID1259425 (University of Nebraska Medical Center, 2018).
The whole screen tested about 14,000 reagents; shown is an unselected part. Not all columns of the deposit are shown. Not given: the time to read-out.

- Aim: 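Compare each knockdown with KSR1 silencing using changes in marker transcripts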 (primary screen)
- Cell system: HCT116 human colon cancer cells
- Knock-down reagent: siRNA pool against human genes, 50 nM siRNA
- Measured: 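mRNA of six signature genes measured together by branched-DNA assay after 50 nM siRNA pool, blank removed, divided by geometric mean of two housekeeping genes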
- Scale: BNIP3L mRNA: higher = more BNIP3L transcript after knockdown

no.	gene knocked down	BNIP3L mRNA, set 1
1	MYDGF (myeloid derived growth factor)	0.229
2	POLR1D (RNA polymerase I and III subunit D)	0.164
3	OAZ1 (ornithine decarboxylase antizyme 1)	0.108
4	KLHL24 (kelch like family member 24)	0.11
5	SURF4 (surfeit 4)	0.0861
6	BRD3 (bromodomain containing 3)	0.186
7	TYR (tyrosinase)	0.128
8	SLC22A17	0.0773
9	PADI1 (peptidyl arginine deiminase 1)	0.11
10	ERCC3 (ERCC excision repair 3, TFIIH core complex helicase subunit)	0.0849
11	PTPN5 (protein tyrosine phosphatase non-receptor type 5)	0.143
12	DAPK2 (death associated protein kinase 2)	0.0894
13	H4C3 (H4 clustered histone 3)	0.106
14	ABR (ABR activator of RhoGEF and GTPase)	0.136
15	AGTPBP1 (ATP/GTP binding carboxypeptidase 1)	0.0705
16	BCL11A (BCL11 transcription factor A)	0.0846
17	DNAJC5 (DnaJ heat shock protein family (Hsp40) member C5)	0.0975
18	ZNF271P (zinc finger protein 271, pseudogene)	0.0755
19	CELP (carboxyl ester lipase pseudogene)	0.0646
20	MCF2 (MCF.2 cell line derived transforming sequence)	0.0487
21	ALLC (allantoicase)	0.131
22	BBX (BBX high mobility group box domain containing)	0.13
23	PAX2 (paired box 2)	0.121
24	CHKA (choline kinase alpha)	0.112
25	DSP (desmoplakin)	0.0854
26	RPL27A (ribosomal protein L27a)	0.573
27	ZFAT (zinc finger and AT-hook domain containing)	0.103
28	ATG4D (autophagy related 4D cysteine peptidase)	0.153
29	MMP7 (matrix metallopeptidase 7)	0.158
30	PURB (purine rich element binding protein B)	0.0293
31	TNFRSF25 (TNF receptor superfamily member 25)	0.106
32	P2RY13 (purinergic receptor P2Y13)	0.0952

Next part, starting with the last 3 of the part before.
no.	gene knocked down	BNIP3L mRNA, set 1
30	PURB (purine rich element binding protein B)	0.0293
31	TNFRSF25 (TNF receptor superfamily member 25)	0.106
32	P2RY13 (purinergic receptor P2Y13)	0.0952
33	MEPCE (methylphosphate capping enzyme)	0.327
34	DNPEP (aspartyl aminopeptidase)	0.107
35	TTF2 (transcription termination factor 2)	0.106
36	PRP4K (pre-mRNA processing factor kinase PRP4K)	0.174
37	ATP6V1G1 (ATPase H+ transporting V1 subunit G1)	0.347
38	YTHDC2 (YTH N6-methyladenosine RNA binding protein C2)	0.14
39	HR (HR lysine demethylase and nuclear receptor corepressor)	0.0958
40	H2AC20 (H2A clustered histone 20)	0.142
41	H2AJ (H2A.J histone)	0.103
42	BST2 (bone marrow stromal cell antigen 2)	0.0877
43	TMEM38A (transmembrane protein 38A)	0.153
44	DDX55 (DEAD-box helicase 55)	0.204
45	PDLIM7 (PDZ and LIM domain 7)	0.0717
46	ADGRF2P (adhesion G protein-coupled receptor F2, pseudogene)	0.0796
47	PDIK1L (PDLIM1 interacting kinase 1 like)	0.149
48	RABEP1 (rabaptin, RAB GTPase binding effector protein 1)	0.136
49	CHST1 (carbohydrate sulfotransferase 1)	0.266
50	IFNAR1 (interferon alpha and beta receptor subunit 1)	0.0422
